Laboratory results: the supplement of paper PMC10849652
The other results are listed elsewhere or left out.

Sequences of proteins named here, by UniProt entry; tags and fusion partners are left off. A change or cut given only in a name is not applied to a line headed by its entry.
UniProt P30154, whole entry, looked up: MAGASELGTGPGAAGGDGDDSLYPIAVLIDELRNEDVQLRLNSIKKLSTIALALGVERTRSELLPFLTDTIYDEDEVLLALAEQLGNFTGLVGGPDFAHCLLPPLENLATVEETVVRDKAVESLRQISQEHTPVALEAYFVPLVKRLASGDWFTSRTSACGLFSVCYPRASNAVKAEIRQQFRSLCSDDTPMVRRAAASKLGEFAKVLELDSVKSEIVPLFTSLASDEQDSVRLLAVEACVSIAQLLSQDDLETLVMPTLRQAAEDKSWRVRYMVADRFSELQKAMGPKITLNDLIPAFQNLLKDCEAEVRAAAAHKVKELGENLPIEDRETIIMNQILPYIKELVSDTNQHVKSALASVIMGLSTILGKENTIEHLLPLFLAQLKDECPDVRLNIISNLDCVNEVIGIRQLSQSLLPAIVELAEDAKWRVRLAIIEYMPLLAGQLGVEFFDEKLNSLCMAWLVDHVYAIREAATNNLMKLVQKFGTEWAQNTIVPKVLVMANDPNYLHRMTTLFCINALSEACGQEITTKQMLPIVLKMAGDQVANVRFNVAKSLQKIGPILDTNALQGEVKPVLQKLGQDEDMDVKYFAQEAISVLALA
UniProt P36873, whole entry, looked up: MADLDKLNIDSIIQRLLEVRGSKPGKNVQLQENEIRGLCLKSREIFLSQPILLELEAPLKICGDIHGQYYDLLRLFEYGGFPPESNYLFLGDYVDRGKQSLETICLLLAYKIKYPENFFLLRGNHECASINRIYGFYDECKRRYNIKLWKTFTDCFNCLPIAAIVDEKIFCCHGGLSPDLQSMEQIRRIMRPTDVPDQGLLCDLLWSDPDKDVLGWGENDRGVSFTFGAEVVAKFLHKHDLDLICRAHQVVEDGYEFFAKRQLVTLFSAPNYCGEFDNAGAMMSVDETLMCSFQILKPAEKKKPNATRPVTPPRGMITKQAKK
UniProt P42785: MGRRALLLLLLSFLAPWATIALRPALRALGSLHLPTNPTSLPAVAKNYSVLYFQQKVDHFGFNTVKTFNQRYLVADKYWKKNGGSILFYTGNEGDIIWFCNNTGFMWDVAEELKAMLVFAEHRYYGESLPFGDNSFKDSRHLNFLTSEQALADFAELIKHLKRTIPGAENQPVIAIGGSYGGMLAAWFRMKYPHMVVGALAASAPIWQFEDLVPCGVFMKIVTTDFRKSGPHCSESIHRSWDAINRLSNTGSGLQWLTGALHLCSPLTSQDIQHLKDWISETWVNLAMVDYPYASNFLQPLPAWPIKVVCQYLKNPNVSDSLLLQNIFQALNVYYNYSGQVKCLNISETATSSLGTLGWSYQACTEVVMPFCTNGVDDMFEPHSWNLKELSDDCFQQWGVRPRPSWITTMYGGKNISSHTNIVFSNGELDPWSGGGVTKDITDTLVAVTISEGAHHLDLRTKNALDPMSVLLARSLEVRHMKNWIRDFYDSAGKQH
UniProt Q8TF05: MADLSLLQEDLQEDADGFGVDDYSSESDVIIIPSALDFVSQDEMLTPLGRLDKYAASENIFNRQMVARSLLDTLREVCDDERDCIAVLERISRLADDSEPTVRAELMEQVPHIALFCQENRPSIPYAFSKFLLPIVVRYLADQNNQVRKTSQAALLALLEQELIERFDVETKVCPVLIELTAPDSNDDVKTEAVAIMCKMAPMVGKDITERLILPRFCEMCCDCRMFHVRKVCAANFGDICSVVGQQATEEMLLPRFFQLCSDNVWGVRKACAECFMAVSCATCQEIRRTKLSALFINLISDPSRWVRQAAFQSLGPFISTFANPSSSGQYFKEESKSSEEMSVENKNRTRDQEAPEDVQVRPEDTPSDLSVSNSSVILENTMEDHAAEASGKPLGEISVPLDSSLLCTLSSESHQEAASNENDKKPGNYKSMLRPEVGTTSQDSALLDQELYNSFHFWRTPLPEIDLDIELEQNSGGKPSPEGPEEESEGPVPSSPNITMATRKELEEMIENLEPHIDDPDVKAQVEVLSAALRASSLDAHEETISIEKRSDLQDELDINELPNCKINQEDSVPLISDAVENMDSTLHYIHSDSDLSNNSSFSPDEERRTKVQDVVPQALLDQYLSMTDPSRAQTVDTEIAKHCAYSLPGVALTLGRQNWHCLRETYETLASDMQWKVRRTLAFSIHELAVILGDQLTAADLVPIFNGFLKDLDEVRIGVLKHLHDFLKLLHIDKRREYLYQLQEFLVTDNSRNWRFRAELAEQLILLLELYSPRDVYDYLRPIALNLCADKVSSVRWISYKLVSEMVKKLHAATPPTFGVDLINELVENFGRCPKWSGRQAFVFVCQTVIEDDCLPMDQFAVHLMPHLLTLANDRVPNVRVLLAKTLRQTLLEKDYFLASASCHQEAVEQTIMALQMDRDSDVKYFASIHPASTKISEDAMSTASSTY
UniProt Q9NY27: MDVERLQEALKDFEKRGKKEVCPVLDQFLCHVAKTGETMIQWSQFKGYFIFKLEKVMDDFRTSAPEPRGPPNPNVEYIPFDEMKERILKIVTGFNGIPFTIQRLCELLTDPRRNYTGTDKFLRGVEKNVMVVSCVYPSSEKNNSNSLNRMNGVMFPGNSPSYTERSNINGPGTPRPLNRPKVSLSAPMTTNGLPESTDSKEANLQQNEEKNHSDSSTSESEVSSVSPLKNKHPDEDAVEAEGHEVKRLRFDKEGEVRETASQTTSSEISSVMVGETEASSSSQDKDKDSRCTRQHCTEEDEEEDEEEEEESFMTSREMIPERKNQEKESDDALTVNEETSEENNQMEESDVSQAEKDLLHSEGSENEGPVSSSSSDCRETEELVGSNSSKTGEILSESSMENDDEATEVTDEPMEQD
UniProt Q9Y6M0: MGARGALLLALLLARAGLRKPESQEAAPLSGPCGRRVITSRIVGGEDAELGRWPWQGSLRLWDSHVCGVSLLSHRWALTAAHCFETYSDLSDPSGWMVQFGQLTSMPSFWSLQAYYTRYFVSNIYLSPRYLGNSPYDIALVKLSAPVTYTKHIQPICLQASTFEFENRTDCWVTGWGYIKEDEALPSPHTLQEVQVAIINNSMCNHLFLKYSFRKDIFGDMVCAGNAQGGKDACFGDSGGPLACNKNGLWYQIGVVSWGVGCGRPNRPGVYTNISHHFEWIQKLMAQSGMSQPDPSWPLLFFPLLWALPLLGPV
UniProt P63098, whole entry, looked up: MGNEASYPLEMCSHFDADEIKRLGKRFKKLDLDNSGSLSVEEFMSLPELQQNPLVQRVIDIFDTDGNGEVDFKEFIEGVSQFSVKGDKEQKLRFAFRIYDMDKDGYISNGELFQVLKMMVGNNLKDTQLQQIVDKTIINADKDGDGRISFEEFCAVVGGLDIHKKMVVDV
UniProt P62140, whole entry, looked up: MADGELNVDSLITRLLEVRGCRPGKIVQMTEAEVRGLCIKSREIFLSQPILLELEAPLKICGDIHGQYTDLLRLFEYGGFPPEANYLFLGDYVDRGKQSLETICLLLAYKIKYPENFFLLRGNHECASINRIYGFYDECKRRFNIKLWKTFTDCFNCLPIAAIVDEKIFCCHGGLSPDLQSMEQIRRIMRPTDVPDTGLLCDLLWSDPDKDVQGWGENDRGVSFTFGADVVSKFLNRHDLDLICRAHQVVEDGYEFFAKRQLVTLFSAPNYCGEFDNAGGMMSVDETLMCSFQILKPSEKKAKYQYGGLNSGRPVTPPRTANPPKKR
UniProt P48454, whole entry, looked up: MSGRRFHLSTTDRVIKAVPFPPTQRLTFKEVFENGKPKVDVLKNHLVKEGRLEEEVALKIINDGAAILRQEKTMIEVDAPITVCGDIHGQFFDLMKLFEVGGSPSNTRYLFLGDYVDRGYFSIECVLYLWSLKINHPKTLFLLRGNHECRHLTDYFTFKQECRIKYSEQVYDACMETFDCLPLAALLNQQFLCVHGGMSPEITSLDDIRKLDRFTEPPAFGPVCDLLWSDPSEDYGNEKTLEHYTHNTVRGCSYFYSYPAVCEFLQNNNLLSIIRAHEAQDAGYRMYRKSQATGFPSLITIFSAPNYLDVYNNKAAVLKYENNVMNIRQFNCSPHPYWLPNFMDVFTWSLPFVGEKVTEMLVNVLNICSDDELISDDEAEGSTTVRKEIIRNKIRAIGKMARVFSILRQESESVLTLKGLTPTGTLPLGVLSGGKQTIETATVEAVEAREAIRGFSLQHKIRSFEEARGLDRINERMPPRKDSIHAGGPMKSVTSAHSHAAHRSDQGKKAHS
UniProt Q9NVM4: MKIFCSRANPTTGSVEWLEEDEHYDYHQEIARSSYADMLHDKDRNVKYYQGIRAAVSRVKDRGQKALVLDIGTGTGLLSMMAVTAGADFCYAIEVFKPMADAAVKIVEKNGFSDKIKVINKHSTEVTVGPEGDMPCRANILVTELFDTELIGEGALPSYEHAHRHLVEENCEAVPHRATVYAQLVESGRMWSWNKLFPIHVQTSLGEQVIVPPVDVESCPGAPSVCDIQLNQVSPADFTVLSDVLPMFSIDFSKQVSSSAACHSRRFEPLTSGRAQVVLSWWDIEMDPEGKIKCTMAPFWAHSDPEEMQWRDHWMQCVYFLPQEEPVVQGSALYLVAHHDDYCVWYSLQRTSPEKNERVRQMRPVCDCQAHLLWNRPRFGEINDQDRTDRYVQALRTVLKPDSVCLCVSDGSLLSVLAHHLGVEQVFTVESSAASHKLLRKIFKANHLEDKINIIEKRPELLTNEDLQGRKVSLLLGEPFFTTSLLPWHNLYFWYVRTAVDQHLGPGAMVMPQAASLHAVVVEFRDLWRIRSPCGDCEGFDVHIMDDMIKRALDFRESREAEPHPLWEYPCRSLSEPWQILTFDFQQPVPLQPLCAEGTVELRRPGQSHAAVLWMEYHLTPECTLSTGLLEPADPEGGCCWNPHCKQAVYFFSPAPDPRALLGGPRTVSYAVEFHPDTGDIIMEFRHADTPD
UniProt Q66LE6: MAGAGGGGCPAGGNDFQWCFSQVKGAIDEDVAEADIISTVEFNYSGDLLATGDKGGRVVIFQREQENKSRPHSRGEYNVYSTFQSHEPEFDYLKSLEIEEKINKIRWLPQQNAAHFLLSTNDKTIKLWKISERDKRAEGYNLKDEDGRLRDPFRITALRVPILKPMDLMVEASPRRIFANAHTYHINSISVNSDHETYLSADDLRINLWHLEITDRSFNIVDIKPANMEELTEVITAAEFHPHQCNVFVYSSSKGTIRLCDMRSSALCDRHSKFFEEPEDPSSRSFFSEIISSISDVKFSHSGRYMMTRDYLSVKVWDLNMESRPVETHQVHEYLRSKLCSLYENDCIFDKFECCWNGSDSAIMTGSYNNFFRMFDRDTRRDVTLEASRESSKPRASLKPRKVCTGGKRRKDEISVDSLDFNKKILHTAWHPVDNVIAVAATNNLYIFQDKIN
UniProt P07225: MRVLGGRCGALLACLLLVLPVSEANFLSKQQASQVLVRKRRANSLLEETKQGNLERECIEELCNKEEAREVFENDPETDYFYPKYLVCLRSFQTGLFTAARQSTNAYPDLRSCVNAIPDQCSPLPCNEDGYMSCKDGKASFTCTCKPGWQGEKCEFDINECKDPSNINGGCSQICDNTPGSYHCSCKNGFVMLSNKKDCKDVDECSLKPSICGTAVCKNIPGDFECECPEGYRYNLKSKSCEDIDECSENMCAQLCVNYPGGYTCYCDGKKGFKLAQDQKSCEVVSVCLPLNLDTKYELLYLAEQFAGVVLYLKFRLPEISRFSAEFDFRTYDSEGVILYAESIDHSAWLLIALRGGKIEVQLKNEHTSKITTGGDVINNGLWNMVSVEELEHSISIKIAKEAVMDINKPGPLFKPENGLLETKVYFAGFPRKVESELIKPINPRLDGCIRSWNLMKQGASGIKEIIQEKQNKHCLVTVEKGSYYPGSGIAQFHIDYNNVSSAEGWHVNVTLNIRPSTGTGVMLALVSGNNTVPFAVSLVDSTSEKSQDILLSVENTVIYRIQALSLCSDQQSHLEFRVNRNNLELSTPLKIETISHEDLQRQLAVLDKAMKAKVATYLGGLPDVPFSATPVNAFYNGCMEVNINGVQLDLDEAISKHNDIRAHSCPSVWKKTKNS
UniProt P63151: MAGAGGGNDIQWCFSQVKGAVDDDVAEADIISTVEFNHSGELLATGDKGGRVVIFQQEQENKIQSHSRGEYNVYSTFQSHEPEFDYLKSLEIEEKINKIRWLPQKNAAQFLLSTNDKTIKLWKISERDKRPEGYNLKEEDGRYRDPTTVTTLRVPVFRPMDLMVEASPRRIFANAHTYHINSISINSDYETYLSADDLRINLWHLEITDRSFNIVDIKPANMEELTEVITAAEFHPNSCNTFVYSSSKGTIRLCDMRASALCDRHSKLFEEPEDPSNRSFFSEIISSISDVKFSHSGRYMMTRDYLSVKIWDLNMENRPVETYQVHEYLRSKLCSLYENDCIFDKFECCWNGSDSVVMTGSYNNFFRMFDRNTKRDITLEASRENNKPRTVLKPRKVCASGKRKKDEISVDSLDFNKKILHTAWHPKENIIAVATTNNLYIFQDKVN

Tests used:
Assay in all cases: log2 fold change, soluble protein after heating vs DMSO (PISA); higher = thermal stabilisation; K562 cells, 10 uM, 30 min; active = over 0.2 and 3.5 SD of the protein, either way, in both replicates (recomputed)
bafetinib = compound: Cc1ccc(NC(=O)c2ccc(CN3CC[C@H](N(C)C)C3)c(C(F)(F)F)c2)cc1Nc1nccc(-c2cncnc2)n1 [bafetinib]
Procedure, shortened: (§1)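 K562 cells (2×10^6 cells/mL) were treated with 10 μM compound for 30 min, and aliquots were heated for 3 min over 48°C-58°C. Pooled aliquots were extracted in PBS with 0.5% NP-40 at 4°C, and the supernatant after 21,000xg for 90 min was measured by TMTpro 16plex LC-MS/MS with channel sums equalised. Reported thermal stability, relative to control samples and from duplicates, is a log2 fold change.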

[1] = compound: Cc1cccc(CC(=O)N2CCc3c2ccc(-c2cn(C)c4ncnc(N)c24)c3F)n1
Procedure, shortened: as §1

nilotinib = compound: Cc1cn(-c2cc(NC(=O)c3ccc(C)c(Nc4nccc(-c5cccnc5)n4)c3)cc(C(F)(F)F)c2)cn1 [nilotinib]
Procedure, shortened: as §1

[2] = compound: Cc1nc(Nc2n[nH]c3c2CN(C(=O)N[C@H](CN(C)C)c2ccccc2)C3(C)C)c2sccc2n1
Procedure, shortened: as §1

dasatinib = compound: Cc1nc(Nc2ncc(C(=O)Nc3c(C)cccc3Cl)s2)cc(N2CCN(CCO)CC2)n1 [dasatinib]
Procedure, shortened: as §1

[3] = compound: Cc1ncc(-c2ccnc(Nc3ccc(S(C)(=O)=O)cc3)n2)n1C(C)C
Procedure, shortened: as §1

[4] = compound: Cn1cc(-c2ccc3c(c2)CCN3C(=O)Cc2cccc(C(F)(F)F)c2)c2c(N)ncnc21
Procedure, shortened: as §1

[5] = compound: Cn1cc(-c2ccc3nnc(C(F)(F)c4ccc5ncccc5c4)n3n2)cn1
Procedure, shortened: as §1

tipifarnib = compound: Cn1cncc1[C@@](N)(c1ccc(Cl)cc1)c1ccc2c(c1)c(-c1cccc(Cl)c1)cc(=O)n2C [tipifarnib]
Procedure, shortened: as §1

mubritinib = compound: FC(F)(F)c1ccc(/C=C/c2nc(COc3ccc(CCCCn4ccnn4)cc3)co2)cc1 [mubritinib]
Procedure, shortened: as §1

[6] = compound: NC(=O)Nc1cc(-c2cccc(F)c2)sc1C(=O)N[C@H]1CCCNC1
Procedure, shortened: as §1

[7] = compound: NC(=O)c1cnc(N[C@@H]2CCCC[C@@H]2N)nc1Nc1cccc(-n2nccn2)c1
Procedure, shortened: as §1

[8] = compound: NC1(c2ccc(-c3nc4ccn5c(=O)[nH]nc5c4cc3-c3ccccc3)cc2)CCC1
Procedure, shortened: as §1

[9] = compound: NCC(=O)Nc1ccc(-n2nc(C(F)(F)F)cc2-c2ccc3c(ccc4ccccc43)c2)cc1
Procedure, shortened: as §1

entinostat = compound: Nc1ccccc1NC(=O)c1ccc(CNC(=O)OCc2cccnc2)cc1 [entinostat]
Procedure, shortened: as §1

vorinostat = compound: O=C(CCCCCCC(=O)Nc1ccccc1)NO [vorinostat]
Procedure, shortened: as §1

citarinostat = compound: O=C(CCCCCCNC(=O)c1cnc(N(c2ccccc2)c2ccccc2Cl)nc1)NO [citarinostat]
Procedure, shortened: as §1

silmitasertib = compound: O=C(O)c1ccc2c(c1)nc(Nc1cccc(Cl)c1)c1ccncc12 [silmitasertib]
Procedure, shortened: as §1

[10] = compound: O=C1NC(=O)C(c2cnc3ccccn23)=C1c1cn2c3c(cc(F)cc13)CN(C(=O)N1CCCCC1)CC2
Procedure, shortened: as §1

[11] = compound: c1cc(OCCN2CCCCC2)cc(-c2n[nH]c3ccc(-c4nnc[nH]4)cc23)c1
Procedure, shortened: as §1

Measured: log2 fold change

PPP2R1B isoform 2 (UniProt P30154)
inactive: bafetinib 0.008 | [1] -0.016 | nilotinib 0.026 | [2] -0.06 | dasatinib -0.04 | [3] -0.019 | [4] 0.039 | [5] -0.027 | tipifarnib 0.046 | mubritinib 0.064 | [6] 0.075 | [7] -0.035 | [8] -0.121 | [9] 0.051 | entinostat 0.017 | vorinostat 0.07 | citarinostat 0.048 | silmitasertib 0.063 | [10] 0.038 | [11] -0.016

PPP1CC isoform 2 (UniProt P36873)
inactive: bafetinib -0.055 | [1] 0.001 | nilotinib -0.021 | [2] 0.066 | dasatinib 0.056 | [3] -0.006 | [4] 0.006 | [5] -0.026 | tipifarnib 0.009 | mubritinib -0.009 | [6] -0.026 | [7] -0.012 | [8] 0.045 | [9] 0.033 | entinostat 0.005 | vorinostat -0.022 | citarinostat 0.011 | silmitasertib 0.009 | [10] -0.007 | [11] -0.071

PRCP (UniProt P42785)
inactive: bafetinib -0.209 | [1] -0.018 | nilotinib 0.011 | [2] 0.009 | dasatinib -0.021 | [3] -0.009 | [4] 0.02 | [5] 0.008 | tipifarnib 0.055 | mubritinib 0.057 | [6] 0.013 | [7] 0.005 | [8] -0.106 | [9] 0.008 | entinostat 0.035 | vorinostat 0.005 | citarinostat 0.028 | silmitasertib 0 | [10] -0.014 | [11] 0.044

PPP4R1 (UniProt Q8TF05)
inactive: bafetinib -0.016 | [1] 0.06 | nilotinib -0.067 | [2] 0.006 | dasatinib -0.052 | [3] -0.001 | [4] 0.02 | [5] -0.014 | tipifarnib -0.066 | mubritinib 0.051 | [6] 0.002 | [7] -0.034 | [8] -0.143 | [9] -0.014 | entinostat -0.006 | vorinostat 0.025 | citarinostat -0.035 | silmitasertib 0.031 | [10] -0.026 | [11] 0.002

PPP4R2 (UniProt Q9NY27)
inactive: bafetinib -0.029 | [1] 0.023 | nilotinib 0.007 | [2] -0.018 | dasatinib 0.007 | [3] -0.022 | [4] -0.008 | [5] 0.011 | tipifarnib 0.049 | mubritinib 0.053 | [6] -0.103 | [7] -0.037 | [8] -0.067 | [9] -0.017 | entinostat -0.002 | vorinostat -0.002 | citarinostat 0.032 | silmitasertib 0.016 | [10] -0.028 | [11] -0.016

PPP2R1A (UniProt P30153)
inactive: bafetinib -0.029 | [1] 0.01 | nilotinib -0.006 | [2] -0.01 | dasatinib -0.018 | [3] -0.004 | [4] 0.057 | [5] -0.007 | tipifarnib -0.001 | mubritinib 0.043 | [6] -0.025 | [7] -0.027 | [8] -0.027 | [9] -0.023 | entinostat -0.011 | vorinostat 0.009 | citarinostat 0.034 | silmitasertib -0.014 | [10] -0.041 | [11] -0.025

PRSS21 (UniProt Q9Y6M0)
inactive: bafetinib 0.022 | [1] 0.029 | nilotinib 0.029 | [2] 0.06 | dasatinib -0.066 | [3] 0 | [4] 0.042 | [5] -0.016 | tipifarnib 0.064 | mubritinib -0.042 | [6] -0.014 | [7] 0.036 | [8] -0.033 | [9] 0.024 | entinostat 0.025 | vorinostat -0.01 | citarinostat 0.054 | silmitasertib 0.032 | [10] 0.029 | [11] -0.08

PPP3R1 (UniProt P63098)
inactive: bafetinib -0.086 | [1] -0.014 | nilotinib -0.058 | [2] 0.07 | dasatinib 0.01 | [3] -0.032 | [4] 0.044 | [5] -0.007 | tipifarnib 0.049 | mubritinib -0.009 | [6] -0.039 | [7] -0.028 | [8] -0.122 | [9] -0.019 | entinostat 0.018 | vorinostat -0.016 | citarinostat 0.087 | silmitasertib 0.04 | [10] -0.056 | [11] -0.022

PPP1CB (UniProt P62140)
inactive: bafetinib -0.035 | [1] -0.054 | nilotinib -0.031 | [2] -0.004 | dasatinib -0.011 | [3] -0.039 | [4] 0.058 | [5] 0.025 | tipifarnib -0.001 | mubritinib -0.007 | [6] -0.042 | [7] -0.016 | [8] 0.017 | [9] -0.061 | entinostat 0.009 | vorinostat 0.077 | citarinostat 0.039 | silmitasertib -0.026 | [10] 0.111 | [11] -0.081

PRKCD (UniProt Q05655)
active: [2] -0.261
inactive: bafetinib -0.028 | [1] -0.007 | nilotinib 0.033 | dasatinib -0.049 | [3] -0.021 | [4] 0.027 | [5] 0.102 | tipifarnib 0.008 | mubritinib 0.08 | [6] -0.086 | [7] -0.05 | [8] -0.081 | [9] -0.031 | entinostat 0.024 | vorinostat 0.031 | citarinostat 0.006 | silmitasertib 0.045 | [10] -0.06 | [11] -0.083

PPP3CC isoform 3 (UniProt P48454)
inactive: bafetinib -0.059 | [1] 0.012 | nilotinib -0.073 | [2] 0.036 | dasatinib -0.021 | [3] -0.007 | [4] 0.023 | [5] -0.016 | tipifarnib -0.062 | mubritinib 0.052 | [6] -0.036 | [7] 0.01 | [8] -0.067 | [9] -0.043 | entinostat -0.007 | vorinostat -0.032 | citarinostat 0.056 | silmitasertib -0.015 | [10] -0.084 | [11] -0.026

PRMT7 (UniProt Q9NVM4)
inactive: bafetinib -0.114 | [1] -0.086 | nilotinib -0.002 | [2] -0.047 | dasatinib -0.213 | [3] -0.01 | [4] -0.038 | [5] 0.124 | tipifarnib -0.116 | mubritinib 0.092 | [6] 0.034 | [7] -0.093 | [8] -0.165 | [9] -0.021 | entinostat 0.026 | vorinostat -0.023 | citarinostat -0.032 | silmitasertib 0.067 | [10] -0.103 | [11] -0.05

Two consecutive entries out of the list so far:
PPP3CC isoform 3 (UniProt P48454)
inactive: bafetinib -0.059 | [1] 0.012 | nilotinib -0.073 | [2] 0.036 | dasatinib -0.021 | [3] -0.007 | [4] 0.023 | [5] -0.016 | tipifarnib -0.062 | mubritinib 0.052 | [6] -0.036 | [7] 0.01 | [8] -0.067 | [9] -0.043 | entinostat -0.007 | vorinostat -0.032 | citarinostat 0.056 | silmitasertib -0.015 | [10] -0.084 | [11] -0.026

PRMT7 (UniProt Q9NVM4)
inactive: bafetinib -0.114 | [1] -0.086 | nilotinib -0.002 | [2] -0.047 | dasatinib -0.213 | [3] -0.01 | [4] -0.038 | [5] 0.124 | tipifarnib -0.116 | mubritinib 0.092 | [6] 0.034 | [7] -0.093 | [8] -0.165 | [9] -0.021 | entinostat 0.026 | vorinostat -0.023 | citarinostat -0.032 | silmitasertib 0.067 | [10] -0.103 | [11] -0.05

Additional results follow.

PPP2R2D (UniProt Q66LE6)
inactive: bafetinib -0.035 | [1] -0.115 | nilotinib 0.039 | [2] -0.084 | dasatinib -0.005 | [3] -0.084 | [4] -0.025 | [5] -0.023 | tipifarnib 0.017 | mubritinib 0.049 | [6] -0.063 | [7] -0.071 | [8] -0.117 | [9] -0.068 | entinostat -0.026 | vorinostat 0.001 | citarinostat -0.038 | silmitasertib -0.053 | [10] -0.355 | [11] -0.047

PPM1G (UniProt O15355)
inactive: bafetinib 0.001 | [1] 0.048 | nilotinib -0.041 | [2] -0.05 | dasatinib -0.097 | [3] 0 | [4] 0.096 | [5] 0.117 | tipifarnib -0.133 | mubritinib 0.105 | [6] -0.147 | [7] -0.086 | [8] -0.018 | [9] -0.181 | entinostat 0.017 | vorinostat 0.079 | citarinostat 0.033 | silmitasertib 0.031 | [10] -0.114 | [11] -0.102

PROS1 (UniProt P07225)
inactive: bafetinib -0.173 | [1] -0.038 | nilotinib 0.047 | [2] -0.024 | dasatinib 0.044 | [3] 0.032 | [4] 0.006 | [5] -0.004 | tipifarnib 0.062 | mubritinib -0.088 | [6] -0.138 | [7] -0.113 | [8] 0.028 | [9] 0.004 | entinostat -0.014 | vorinostat -0.014 | citarinostat -0.019 | silmitasertib 0.139 | [10] -0.079 | [11] 0.025

PPP2R2A isoform 2 (UniProt P63151)
inactive: bafetinib -0.026 | [1] 0.012 | nilotinib -0.003 | [2] 0.001 | dasatinib 0.001 | [3] -0.012 | [4] 0.027 | [5] 0.029 | tipifarnib 0.001 | mubritinib 0.007 | [6] -0.013 | [7] -0.036 | [8] -0.032 | [9] -0.004 | entinostat -0.015 | vorinostat 0.005 | citarinostat 0.04 | silmitasertib 0.005 | [10] -0.038 | [11] -0.029
